# Source: patent US20250206818A1 (AGENUS, published 2025)
# These are yes or no findings as the source states them, for the method shown. Some binding calls cover weakened binding; strength is not graded here.
# T1: human LAG-3 expressed on cells (human, UniProt P18627 23-525)
# T1 construct: whole, on cells; also called CD223
# T1 sequence (looked up): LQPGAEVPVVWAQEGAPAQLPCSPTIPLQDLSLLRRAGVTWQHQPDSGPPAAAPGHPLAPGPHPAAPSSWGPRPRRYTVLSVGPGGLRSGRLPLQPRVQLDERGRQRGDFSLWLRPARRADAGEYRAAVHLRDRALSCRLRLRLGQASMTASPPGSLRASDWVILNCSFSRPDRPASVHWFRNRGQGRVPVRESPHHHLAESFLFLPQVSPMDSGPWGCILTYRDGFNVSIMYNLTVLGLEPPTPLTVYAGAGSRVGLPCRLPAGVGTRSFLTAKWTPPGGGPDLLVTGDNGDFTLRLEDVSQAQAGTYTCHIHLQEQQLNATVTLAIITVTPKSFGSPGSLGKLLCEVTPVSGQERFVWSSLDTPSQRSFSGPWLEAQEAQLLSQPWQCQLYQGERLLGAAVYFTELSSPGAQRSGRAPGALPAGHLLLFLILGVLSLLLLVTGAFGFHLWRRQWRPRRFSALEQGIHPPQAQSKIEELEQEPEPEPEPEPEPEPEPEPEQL
# T2: human LAG-3 (human, UniProt P18627 23-450, limits assumed)
# T2 construct: Selections used human LAG-3-Fc, human LAG-3-6His, a 30 aa LAG-3 peptide and/or cells with cynomolgus LAG-3; also called CD223
# T2 sequence (looked up): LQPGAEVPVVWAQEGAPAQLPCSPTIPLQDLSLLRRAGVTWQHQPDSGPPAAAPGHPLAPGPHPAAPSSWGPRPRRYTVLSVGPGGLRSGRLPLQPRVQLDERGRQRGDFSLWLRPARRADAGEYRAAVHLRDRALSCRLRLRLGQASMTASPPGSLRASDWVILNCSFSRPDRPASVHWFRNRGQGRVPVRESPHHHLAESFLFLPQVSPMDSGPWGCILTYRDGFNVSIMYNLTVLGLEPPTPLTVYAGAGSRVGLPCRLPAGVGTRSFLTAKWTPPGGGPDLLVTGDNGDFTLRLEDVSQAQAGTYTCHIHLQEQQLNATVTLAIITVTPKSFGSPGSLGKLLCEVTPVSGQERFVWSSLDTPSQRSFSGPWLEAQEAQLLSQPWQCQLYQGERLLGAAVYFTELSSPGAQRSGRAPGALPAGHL
# Experiments:
# [1] = biological target: T1, human LAG-3 expressed on cells; test: flow cytometry, Fab periplasmic extract on Jurkat cells expressing human LAG-3 (FIGS. 1A-1C)
# Method: The anti-LAG-3 Fabs from periplasmic extracts were tested for binding to LAG-3-expressing cells using flow cytometry. Briefly, wild type and human LAG-3-expressing Jurkat cells were plated at 2×10⁵ cells/well in sample buffer (PBS (Gibco, Cat #10010-015)+0.5% FBS (Gibco, Cat #10270-106)) in 96-well U-bottom plates (Sarstedt). 22 μl of anti-LAG-3 Fab periplasmic extract and 83 μl of diluted anti-c-myc antibody (Gentaur, Clone #9E10, Cat #04-cmyc-9E10) were incubated for 30 minutes at room temperature. 100 μl of the periplasmic extract/anti-c-myc mixture was added to cells and then incubated for one hour on ice. Cells were washed three times and then incubated with a goat anti-mouse APC (BD Biosciences, Cat #550826) for 30 minutes on ice. Cells were washed three times and then analyzed with a FACS machine (BD Accuri6).
# human LAG-3 = biological target: T2, human LAG-3; test: Fab phage display selection; periplasmic extracts screened by ELISA or flow cytometry
# From the text: Anti-LAG-3 antibodies were identified by generation and selection of an immunized Fab phage display library. […] Per mouse, a Fab library was then generated by random-primed cDNA using total RNA as a template to amplify variable regions from mouse antibody genes. Heavy and kappa chain amplicons were combined and cloned into phagemid vectors. […] The 30 amino acid human LAG-3 peptide is a biotinylated peptide comprising the amino acid sequence of […] (SEQ ID NO: 199). Periplasmic extracts of selected Fab clones were then screened by ELISA or flow cytometry. Antibody sequencing and off-rate analysis were then performed on anti-LAG-3 Fabs.
binding [1],binding (human LAG-3),Binder
binds,binds,"P13F01 Fab (Fab, V domains shown) VH: QVQLQQPGAELVKPGASVELSCTASGFNIRDTYMYWVKQRPEQGLEWIGRIDPANGNTKFDPKFQDRATMTADTSSNTAYLQLSSLTSEDTAVYYCTTYFYRYDVGGFDYWGQGTTLTVS VL: EIVLTQSPALMAASPGEKVTITCSVSSSISSSNLHWYQQKSGTSPKLWIYGTSNLASGVPVRFSGSGSGTSYSLTISSMEAEDAATYYCQQWSSYPFTFGSGTKLEIK"
binds,binds,"P15F06 Fab (Fab, V domains shown) VH: QVQLKQSGAELVKPGASVELSCTASGFNIRDTYMYWVKQRPEQGLEWIGRIDPANGNTKFDPKFQDRATMTADTSSNTAYLQLSSLTSEDTAVYYCTTYFYRYDVGGFDYWGQGTTLTVS VL: ENVLTQSPALMAASPGEKVTITCSVSSSISSSTLHWFQQKSGTSPKLWIYGTSNLASGVPVRFSGSGSGTSYSLTISSMEAEDAATYYCQQWSSYPWTFGGGTKLEIK"
binds,binds,"P15E06 Fab (Fab, V domains shown) VH: QVQLQQPGAELVKPGASVELSCTASGFNIRDTYMYWVKQRPEQGLEWIGRIDPANGNTKFDPKFQDRATMTADTSSNTAYLQLSSLTSEDTAVYYCTTYFYRYDVGGFDYWGQGTTLTVS VL: ENVLTQSPALMAASPGEKVTITCSVSSGISSSNLHWYQQKSGTSPKLWIYGTSNLASGVPVRFSGSGSGTSYSLTISSMEAEDAATYYCQQWSRYPWTFGGGTKLEIK"
binds,binds,"P14C04 Fab (Fab, V domains shown) VH: QVQLQQPGAELVKPGASVKLSCTASGFNIKDTYMYWVKQRPEQGLDWIGRIDPANGNTHFDPKFQGKATITADTSSNTAYLQLSSLTSEDTAVYYCSTYFYRYDVGGFDYWGQGTTLTVS VL: ENVLTQSPALMAASPGEKVTITCSVSSSISSSNLHWYQQKSGTSPKLWIYGTSNLASGVPVRFSGSGSGTSYSLTISSMEAEDAATYYCQQWSSYPFTFGSGTKLEIK"
binds,binds,"P14A04 Fab (Fab, V domains shown) VH: QVQLQQPGAELVKPGASVELSCTASGFNIRDTYMYWVKQRPEQGLEWIGRIDPANGNTKFDPKFQDRATMTADTSSNTAYLQLSSLTSEDTAVYYCTTYFYRYDVGGFDYWGQGTTLTVS VL: DIVLTQSPALMAASPGEKVTITCSVSSSISSSNLHWFQQKSGTSPKLWIYGTSNLASGVPVRFSGSGSGTSYSLTISSMEAEDAATYYCQQWSSYPFTFGSGTKLEIK"
